{"source": "PubChem BioAssay AID504784 (Drosophila RNAi Screening Center, 2011)", "screen": "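Search for regulators of lipid droplet storage in oleate-fed fly cells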 (primary screen)", "cell system": "Drosophila Kc167 embryonic cells", "reagents": "long dsRNA against Drosophila genes, about 250 ng dsRNA per well", "duration": "4 days", "conditions": "cells fed 400 µM oleic acid bound to BSA", "measured": "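Cells imaged and segmented; ratio of lipid droplet area to nuclear area, log-transformed, then normalised as a B-score over the screen; higher means more stored lipid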", "direction": "droplet/nuclear area B-score: higher = more stored lipid (overstorage)", "note": "The screen tested about 17,000 reagents; this is an unselected part of those that have a named target and a result. 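Each column is one replicate's B-score; the combined score over replicates was not deposited, so single values may mislead.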"}
{"predicted target": "kek6 (GeneID 43729)", "dsRNA": "DRSC15299", "droplet/nuclear area B-score, replicate 1": -0.758, "droplet/nuclear area B-score, replicate 2": 1.07}
{"predicted target": "Taf10b (GeneID 33468)", "dsRNA": "DRSC00792", "droplet/nuclear area B-score, replicate 1": 0.61, "droplet/nuclear area B-score, replicate 2": 0.0176}
{"predicted target": "CG7483 (GeneID 40987)", "dsRNA": "DRSC16249", "droplet/nuclear area B-score, replicate 1": -0.479, "droplet/nuclear area B-score, replicate 2": 1}
{"predicted target": "CG7483 (GeneID 40987)", "dsRNA": "DRSC22432", "droplet/nuclear area B-score, replicate 1": -0.697, "droplet/nuclear area B-score, replicate 2": -0.135}
{"predicted target": "sdt (GeneID 44861)", "dsRNA": "DRSC17555", "droplet/nuclear area B-score, replicate 1": -1.13, "droplet/nuclear area B-score, replicate 2": -1.32}
{"predicted target": "sdt (GeneID 44861)", "dsRNA": "DRSC17556", "droplet/nuclear area B-score, replicate 1": -0.537, "droplet/nuclear area B-score, replicate 2": -1.95}
{"predicted target": "sdt (GeneID 44861)", "dsRNA": "DRSC17860", "droplet/nuclear area B-score, replicate 1": 0.398, "droplet/nuclear area B-score, replicate 2": 0.238}
{"predicted target": "sdt (GeneID 44861)", "dsRNA": "DRSC17861", "droplet/nuclear area B-score, replicate 1": -0.396, "droplet/nuclear area B-score, replicate 2": -0.302}
{"predicted target": "sdt (GeneID 44861)", "dsRNA": "DRSC18022", "droplet/nuclear area B-score, replicate 1": 1.87, "droplet/nuclear area B-score, replicate 2": 1.51}
{"predicted target": "sdt (GeneID 44861)", "dsRNA": "DRSC18025", "droplet/nuclear area B-score, replicate 1": -0.799, "droplet/nuclear area B-score, replicate 2": -0.438}
{"predicted target": "sdt (GeneID 44861)", "dsRNA": "DRSC18026", "droplet/nuclear area B-score, replicate 1": -1.97}
{"predicted target": "sdt (GeneID 44861)", "dsRNA": "DRSC18027", "droplet/nuclear area B-score, replicate 1": -1.59, "droplet/nuclear area B-score, replicate 2": -1.03}
{"predicted target": "sdt (GeneID 44861)", "dsRNA": "DRSC18108", "droplet/nuclear area B-score, replicate 1": 0.101, "droplet/nuclear area B-score, replicate 2": -0.156}
{"predicted target": "CycC (GeneID 41801)", "dsRNA": "DRSC16619", "droplet/nuclear area B-score, replicate 1": -0.162, "droplet/nuclear area B-score, replicate 2": 0.0442}
{"predicted target": "Ir94g (GeneID 42768)", "dsRNA": "DRSC15231", "droplet/nuclear area B-score, replicate 1": -0.536, "droplet/nuclear area B-score, replicate 2": -1.08}
{"predicted target": "ND-ASHI (GeneID 31604)", "dsRNA": "DRSC18291", "droplet/nuclear area B-score, replicate 1": 1.06, "droplet/nuclear area B-score, replicate 2": -1.65}
